Reference: EP4592312A1
No constants are given. Whether binding was seen depends on the method and setting. Some entries that bind do so weakly or less than the wild type.

Biological target: T1, Asporin (ASPN) protein (human) (UniProt Q9BXN1)
T1 sequence (looked up): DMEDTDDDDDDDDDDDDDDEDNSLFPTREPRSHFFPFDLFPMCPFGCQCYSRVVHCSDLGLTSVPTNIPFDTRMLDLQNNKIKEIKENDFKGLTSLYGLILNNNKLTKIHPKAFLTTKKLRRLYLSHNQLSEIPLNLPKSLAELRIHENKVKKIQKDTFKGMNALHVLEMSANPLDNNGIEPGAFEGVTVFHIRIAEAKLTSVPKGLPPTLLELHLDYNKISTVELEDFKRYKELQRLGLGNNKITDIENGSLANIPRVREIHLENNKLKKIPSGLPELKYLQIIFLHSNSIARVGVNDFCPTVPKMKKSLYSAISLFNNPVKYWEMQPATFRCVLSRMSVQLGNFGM
Assay: dot blot, and peptide blocking with western blot of MRC5 lysate

B1: anti-Asporin monoclonal antibody #10 (antibody, V domains shown)
VH: EVKLVETGGGLVQPGRPMKLSCVASGFTFSDYWMNWVRQSPEKGLEWVVQIRNKPYNYETYYSDSVKGRFTISRDDSKSCVYLQMNNLRAEDMGIYYCTAYYRYDVLFDYWGQGTSLTVSS
VL: DIQMTQTTSSLSASLGDRVTISCRASQDISNYLNWYQQKPEGTVKLLIYYTSRLHSGVPSRFSGSGSGTDYSLTISNLEQEDIATYFCQQSKTLPLTFGAGTKLELK
With B1 the binding was “binds”.
